Results are given in words; binding and its absence hold for the method and conditions named.
Columns and labels:
[1] = biological target: T1, W196Y hAIF_(Δ1-101) (human, UniProt O95831 102-613, W196Y); assay: condition: only oxidized state, without NADH; 10-20 μM CHCHD4 titrated into ~10 μM hAIF; ITC; Auto-iTC200, 25°C, 50 mM potassium phosphate, pH 7.4; 10-20 μM protein partner titrated into ~10 μM oxidized hAIF_(∆1-101) variant, without NADH; single-ligand binding site model; both purified
T1 construct: FAD holoprotein; 'ox' oxidized, 'CTC' after reduction with NADH; The His6 tag is called cleavable; whether it was cleaved is told only in the supplementary materials; also called W196Yox; W196Y CTC; source: E. coli C41 (DE3), purified to homogeneity (protocol in the supplementary materials)

Chains of the proteins cited; added tags and fusions are not shown. Lines headed by an entry give the natural chain unless they say otherwise; changes in a name come on top. A line that says so, or that is headed by a name, gives the form on record, which may keep a tag or linker. Residues count along the entry.
WT human apoptosis-inducing factor hAIF_(Δ1-101) (O95831, residues 102-613): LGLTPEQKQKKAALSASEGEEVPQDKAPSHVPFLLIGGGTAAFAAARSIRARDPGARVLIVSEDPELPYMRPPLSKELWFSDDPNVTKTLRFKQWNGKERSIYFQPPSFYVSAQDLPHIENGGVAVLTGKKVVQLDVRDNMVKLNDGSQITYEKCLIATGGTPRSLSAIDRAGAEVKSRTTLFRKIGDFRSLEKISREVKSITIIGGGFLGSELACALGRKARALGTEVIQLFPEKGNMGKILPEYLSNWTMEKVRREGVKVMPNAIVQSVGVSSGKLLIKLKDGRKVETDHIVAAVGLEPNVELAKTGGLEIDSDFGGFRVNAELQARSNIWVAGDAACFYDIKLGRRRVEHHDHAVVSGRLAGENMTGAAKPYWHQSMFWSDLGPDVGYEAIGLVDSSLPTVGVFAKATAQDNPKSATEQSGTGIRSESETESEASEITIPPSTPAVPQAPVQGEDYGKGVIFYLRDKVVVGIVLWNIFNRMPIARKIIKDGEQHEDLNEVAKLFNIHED
W196Y hAIF_(Δ1-101) (O95831, form named): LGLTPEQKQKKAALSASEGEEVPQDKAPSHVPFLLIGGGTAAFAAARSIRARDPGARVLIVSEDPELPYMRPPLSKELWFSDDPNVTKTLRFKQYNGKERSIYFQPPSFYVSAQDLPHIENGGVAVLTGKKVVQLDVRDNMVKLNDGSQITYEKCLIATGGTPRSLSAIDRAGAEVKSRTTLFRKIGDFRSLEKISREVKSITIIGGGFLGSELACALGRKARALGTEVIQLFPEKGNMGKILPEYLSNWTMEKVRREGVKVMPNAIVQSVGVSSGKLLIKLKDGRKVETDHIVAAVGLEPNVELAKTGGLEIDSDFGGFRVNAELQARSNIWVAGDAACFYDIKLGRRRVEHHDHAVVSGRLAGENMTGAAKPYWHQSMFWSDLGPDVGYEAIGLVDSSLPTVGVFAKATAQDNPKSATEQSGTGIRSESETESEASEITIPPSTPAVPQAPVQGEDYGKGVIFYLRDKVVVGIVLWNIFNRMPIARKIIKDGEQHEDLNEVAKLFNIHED

[2] = biological target: WT human apoptosis-inducing factor hAIF_(Δ1-101) (human) (UniProt O95831); assay: as above

B1: human CHCHD4 (coiled-coil-helix-coiled-coil-helix domain containing 4) (natural protein, UniProt Q8N4Q1 1-142, looked up)
chain: MSYCRQEGKDRIIFVTKEDHETPSSAELVADDPNDPYEEHGLILPNGNINWNCPCLGGMASGPCGEQFKSAFSCFHYSTEEIKGSDCVDQFRAMQECMQKYPDLYPQEDEDEEEEREKKPAEQAEETAPIEATATKEEEGSS
notes: human CHCHD4, UniProtKB Q8N4Q1; synthetic codon-optimised cDNA in pET28a (NdeI-NotI); The His6 tag is called cleavable; whether it was cleaved is told only in the supplementary materials; source: E. coli C41 (DE3), purified (protocol in the supplementary materials)
**Q.** With B1 as the binder, how does the binding [1] read?
**A.** no binding

**Q.** What about the binding [2] of the same binder?
**A.** no binding

— paper PMC7822688, “W196 and the β-Hairpin Motif Modulate the Redox Switch of Conformation and the Biomolecular Interaction Network of the Apoptosis-Inducing Factor” (Oxidative Medicine and Cellular Longevity, 2021)
